From patent publication US11878955B1, “3,3′,3″-nitrilotris(1-(naphthalen-2-yloxy)propan-2-ol) as an eco-friendly insecticidal agent against Spodoptera littoralis (boisd.)” (priority 2023, dated 2024)

System: Spodoptera littoralis larvae (2nd and 4th instars)
Assay: Insecticidal bioassay screening (castor leaf dip)
Format: in vivo
Details: after 72 h of treatment, regression line slope
Protocol: Five concentrations (200, 100, 50, 25, 12.5 ppm) were designed for this synthetic compound and the reference fenoxycarb compound as the dynamic ingredients based on ppm via diluting the commercial formulation.
In this experiment, castor leaves are immersed in each of the previously prepared concentrations of the components for 10 seconds and then left to dry for 60 minutes. Larvae of the second and fourth instars of each checked strain are prepared with treated leaves in gauze-covered glass containers for 72 hrs. An untreated control is made in which leaves are dipped in triton x-100 and distilled water only. Then the preserved leaves were removed & fresh, untreated leaves were provided for 72 hours. Three replicates (10 larvae each) were checked for each concentration. Daily inspection was carried out for all treatments and mortality percentages were recorded 3 days (72 hours) after treatment. The average mortality percentage was corrected employing Abbott's formula. The corrected mortality rate for each of the previously synthesized compounds is statistically calculated according to Finney (1970). Through this rate, the corresponding concentration test lines (LDP lines) are assessed. Fifty and ninety percent mortality are determined, and the regression values for the checked products were previously evaluated.

Question: How did the “slope ± SE” value (2nd instar larvae of S. littoralis) turn out when `CCOC(=O)NCCOc1ccc(Oc2ccccc2)cc1` [Fenoxycarb, reference compound] was run?
Answer: 0.238 ± 0.082

Question: And the “slope ± SE” value (4th instar larvae of S. littoralis)?
Answer: 0.251 ± 0.082
